Data: article PMC5897774, “Mitotic spindle association of TACC3 requires Aurora‐A‐dependent stabilization of a cryptic α‐helix” (The EMBO Journal, 2018)
Results are given in words; binding and its absence hold for the method and conditions named. For some assays here: In cells and extracts the contact can be indirect. Some entries that bind do so weakly or less than the wild type. Values belong to the binder of their own block, whether it stands above or below them.

How the values were obtained:
[1] = biological target: TACC3 519–563 (TACC3^N‐ACID) (human) (UniProt Q9Y6A5); experiment: crystal structure; co-expressed Aurora‐A 122–403 D274N, C290A, C393A/TACC3 519–563 complex, 16.5 mg/ml, with 5 mM ADP/MgCl2; 0.1 M Bis–Tris pH 5.5, 2 M ammonium sulphate, 18°C; both purified
[2] = biological target: TACC3 (endogenous, WT HeLa) (human (endogenous in HeLa)) (UniProt Q9Y6A5); experiment: proximity ligation; HeLa cells (synchronised by double‐thymidine block or WT, F525A clones) fixed with ice‐cold methanol; mouse Aurora‐A antibody with rabbit TACC3 or TPX2 antibody; Duolink kit

- binding [1]: binds
B1: Aurora‐A 122–403 C290A, C393A, D274N mutant (Aurora‐A^M3KD) (domain or fragment, UniProt O14965 122-403)
chain: ESKKRQWALEDFEIGRPLGKGKFGNVYLAREKQSKFILALKVLFKAQLEKAGVEHQLRREVEIQSHLRHPNILRLYGYFHDATRVYLILEYAPLGTVYRELQKLSKFDEQRTATYITELANALSYCHSKRVIHRDIKPENLLLGSAGELKIANFGWSVHAPSSRRTTLAGTLDYLPPEMIEGRMHDEKVDLWSLGVLCYEFLVGKPPFEANTYQETYKRISRVEFTFPDFVTEGARDLISRLLKHNPSQRPMLREVLEHPWITANSSKPSNAQNKESASKQS

- binding [2]: binds
B2: Aurora‐A (endogenous, HeLa) (protein, UniProt O14965 1-403)
chain: MDRSKENCISGPVKATAPVGGPKRVLVTQQFPCQNPLPVNSGQAQRVLCPSNSSQRIPLQAQKLVSSHKPVQNQKQKQLQATSVPHPVSRPLNNTQKSKQPLPSAPENNPEEELASKQKNEESKKRQWALEDFEIGRPLGKGKFGNVYLAREKQSKFILALKVLFKAQLEKAGVEHQLRREVEIQSHLRHPNILRLYGYFHDATRVYLILEYAPLGTVYRELQKLSKFDEQRTATYITELANALSYCHSKRVIHRDIKPENLLLGSAGELKIADFGWSVHAPSSRRTTLCGTLDYLPPEMIEGRMHDEKVDLWSLGVLCYEFLVGKPPFEANTYQETYKRISRVEFTFPDFVTEGARDLISRLLKHNPSQRPMLREVLEHPWITANSSKPSNCQNKESASKQS
